Tested on: TF
Details: clopidogrel 75 mg/day, good responders (PRI <60%)
Experimental: The in vitro experiments were conducted on 10 healthy volunteers (n=5 males and n=5 females; average age 39±6) who had not taken antiplatelet medicaments in the 10 days before the blood sample was taken. The effect of clopidogrel on TF expression was evaluated on 193 patients suffering from coronary artery disease (CAD) with myocardial infarction with non-ST elevation. […] The clinical characteristics of the patients enrolled are set out in Table 1.
The exclusion criteria were: age >80 years, valvular heart disease, atrial fibrillation, thyrotoxicosis, history of haemorrhagic diathesis, platelet disorder or thrombocytopenia, anticoagulant or thrombolytic treatment. A subject with severe congenital P2Y12 deficiency (person) was also studied.
Whole blood (WB) samples were taken with a 19 gauge needle without venous stasis in tubes containing sodium citrate (0.129 M, 1/10 volume/volume) (Vacutainer, Becton Dickinson), discarding the first 4 ml. […] The platelet-rich plasma (PRP) was transferred to a new test tube and analysed with the Sysmex XE-2100 Automated Hematology Analyzer to determine the platelet count, mean platelet volume (MPV), platelet distribution […] (PDW), platelet recovery (defined as the percentage of the platelet count in the PRP to 100% of the number of platelets in the WB), and leukocyte contamination. […]

COC(=O)[C@H](c1ccccc1Cl)N1CCc2sccc2C1 [clopidogrel]
good responders with a percentage of TF-positive platelets exceeding the average measured in poor responders (23 of 144): 15% | good responders exceeding the poor responders by average amount of TF expressed on the platelet surface (MFI) (FIG. 2): 38%
